At least one compound was matched to its structure with a doubt left.
How the values were obtained:
[1] = tested on: mechanical hyperalgesia of the affected hind paw; test: Mechanical hyperalgesia (von Frey foot withdrawal) after L5 spinal nerve ligation; assay type: in vivo; details: SNL mice, bicuculline 0.05 or 0.10 μg i.t. in addition to PBN 150 mg/kg i.p.
Procedure: Inhibition of neuron death using one of the anti-oxidant agents described above is examined in a spinal injury model as described below. The oxidation inhibitor used is phenyl-N-tert-butylnitrone, a ROS scavenger. Peripheral nerve injury is induced by tightly ligating the L5 spinal nerve under isoflurane anesthesia (2% induction and 1.5% maintenance). Seven days after SNL, mice are randomly divided into treatment and control groups. Mice belonging to one treatment group are injected by one of two different routes with phenyl-N-tert-butylnitrone, PBN (Sigma, St. Louis, Mo.). Doses of PBN used are 150 mg/kg (i.p., 0.1 ml) or 100 μg (i.t., 5 μl), dissolved in saline at a concentration of 20 mg/ml. Mice in the control groups are treated with the same volume of saline. […]
Pain behavior is tested by assessing mechanical hyperalgesia of the affected hind paw. […] Mechanical hyperalgesia of the hind paw is measured by determining the frequency of foot withdrawals to 10 stimuli applied with a von Frey (vF) filament (Stoelting, Wood Dale, Ill.). […] Response rates are calculated as a percentage of the number of positive responses/10 stimuli.

GABA neurons = test: Whole-cell patch recording in lumbar spinal cord slices; assay type: cell-based, mouse; details: bicuculline with PBN

CN1CCc2cc3c(cc2[C@H]1[C@@H]1OC(=O)c2c1ccc1c2OCO1)OCO3 [bicuculline, 1(S), 9(R)-(−)-Bicuculline methiodide]
foot withdrawal to von Frey filament (pain behavior) [1]: withdraw their foot relatively fast
effect on PBN action on neuron firing (GABA neurons): counter the effect of PBN
